Tests used:
[1] = tested on: chronic pancreatitis rats and control rats; experiment: PFD test (BT-PABA orally, PABA excretion rate in urine); type: in vivo, rat; settings: specificity 100%
Procedure: The rats of the model of chronic pancreatitis and control rats, which were kept for 3 to 4 weeks after the operation, were made to fast from 9:00 AM. At 4:00 PM, 3 mg/ml of BT-PABA (PFD solution for internal use, Eisai) was orally administered in an amount of 15 mg/kg. Urine was collected for 16 hours until 9:00 AM of the next day. The amount of the collected urine and the PABA concentration in the urine were determined using a PABA measuring kit to determine the excretion rate in urine (PFD test).

[2] = tested on: chronic pancreatitis rats and control (normal) rats; experiment: ^13C-breath test (Δ^13C in exhaled CO2 after oral administration); type: in vivo, rat
Procedure: A model of chronic pancreatitis in rats were prepared by injecting oleic acid into the pancreatic duct (Mundlos et al., Pancreas 1:29 (1986)). After overnight fast, a Wistar male rat of 5 weeks old was anesthetized by intraperitoneal administration of Nembutal (50 mg/kg). The abdominal wall was shaved and the rat was fixed supinely on an operating table. An Isodine solution was applied to sterilize, and a 3 to 4 cm midline incision was made on the abdomen. The duodenum and the pancreas were drawn out and a 25 G needle was pierced through the duodenal wall. A polyethylene cannula (PE-10) was inserted through the pierced hole into the duodenum and further inserted into the common bile duct by about 5 mm from the papilla. The inserted cannula was fixed by a microclip. Further, the biliary duct was closed by a microclip in order to prevent oleic acid from flowing into the liver. Oleic acid (50 μl) was injected at a rate of 20 μl/min by a microsyringe pump. After the injection was completed, the rat was allowed to stand for 2 minutes so that the oleic acid was distributed throughout the pancreas. The microclips and cannula were removed and the duodenum was returned. The endothelium was sutured with silk thread (Nescosuture silk suture thread 3-0, Nihon Shoji KK) and the outer skin was sutured with a skin stapler (Appose ULC, No. 8034-12, 5.7×3.8 mm). As a control, only laparotomy was carried out. These rats subjected to the operation were kept under free intake of standard food and water at 23° C., relative humidity of 55% until use.
The rat of 9 weeks old was fixed without anesthesia in a rat holder for a microwave irradiation apparatus. […]
Δ^13C (‰) was calculated from the ^13C concentration in the exhaled CO2 at each time point (^13C tmin) and the ^13C concentration in standard CO2 (^13C std) according to the following equation: Δ^13C (‰)=[(^13C tmin−^13C 0min)/^13C std]×1000

O=C(O)c1ccc(NC(=O)[C@H](Cc2ccc(O)cc2)NC(=O)c2ccccc2)cc1 [PFD, N-benzoyl-L-tyrosyl-p-aminobenzoic acid]
sensitivity in the PFD test ([1]; same group of rats as Bz-Ala-(^13C-Ala) breath test): 63% | sensitivity in the PFD test ([1]; same group of rats as Bz-DL-Phe-(^13C-Leu) breath test, BT-PABA 15 mg/kg oral): 50% | sensitivity in the PFD test ([1]; same group of rats as Bz-Gly-(^13C-Leu) breath test): 50%

Bz-Ala-(^13C-Ala)
sensitivity of breath test (cut off set such that specificity is 100%) ([2]; Δ^13C value at 10 minutes as check value, 50 mg/kg oral, chronic pancreatitis n=8, normal n=7): 88%

Bz-DL-Phe-(^13C-Leu)
sensitivity of breath test (cut off set such that specificity is 100%) ([2]; Δ^13C value at 10 minutes as check value, 250 mg/kg oral, chronic pancreatitis n=8, control n=4): 100%

Bz-Gly-(^13C-Leu)
sensitivity of breath test (cut off set such that specificity is 100%) ([2]; Δ^13C value at 18 minutes as check value, 50 mg/kg oral, chronic pancreatitis n=10, normal n=10): 80%
